Values of other authors, collected in patent publication US10722492B2, “Andrographolide treats progressive forms of multiple sclerosis” (INNOBIOSCIENCES, LLC, priority 2016, dated 2020).
At least one structure is not confirmed: it was looked up by name or label, or the drawing left a doubt.

System: SP & PPMS forms
Conditions: summary of prior art; cited from earlier work

Compound | slowing down / reduction of disability progression in progressive MS
C/C(O)=C(\C#N)C(=O)Nc1ccc(C(F)(F)F)cc1 [teriflunomide] | no effect on the progressive forms
CCCCCCCCc1ccc(CCC(N)(CO)CO)cc1 [fingolimod] | no effect on the progressive forms
